{
  "source": "PubChem BioAssay AID504467",
  "about": "(National Center for Advancing Translational Sciences (NCATS), 2011)",
  "note": "About 7,700 (2.3%) of roughly 330,000 compounds were called active. Inconclusive means that the source gave no clear call. Such entries were picked first, then a sample of the others. The call rests on the fitted dose curve; in most records, active means well fitted inhibition curve with a large enough effect; inconclusive means small, poorly fitted or top-dose-only effect, or effect the other way; inactive means flat fitted curve, though single readings scatter. A potency beside an inconclusive call is a rough fit, not a confirmed value. On the % scale 0 is the no-effect control and ±100 the full control effect; potency means the concentration at half of the fitted maximal effect.",
  "data": [
    {"experiment": "qHTS screen for small molecules that inhibit ELG1-dependent DNA repair in human embryonic kidney (HEK293T) cells expressing luciferase-tagged ELG1; further: nearly all actives have a fitted effect of over 55% in size", "details": "HEK293T ELG1-luciferase reporter, luminescence, 16 h, DNA damage induced by 5-fluorouridine; activity change, negative = inhibition: at 46.1 µM (top of the series)", "procedure,_shortened": "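5-Fluorouridine DNA damage + compound/DMSO, 2,000 cells/well, 16 h, 37 °C/5% CO2. ONE-Glo, 30 min RT, luminescence. Readout = decrease in reporter signal.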", "values": [
      {"smiles": "Cc1cc(=O)oc2cc(NC(=S)NCc3ccccn3)ccc12", "Potency": "inconclusive: 29.1 µM [activator, single point]"},
      {"smiles": "O=S(=O)(c1ccccc1)c1nc(-c2ccco2)oc1NCc1ccco1", "Potency": "inconclusive: 18.4 µM [inhibitor, partial curve, poor fit]"},
      {"smiles": "CCN(c1ccc(OC)cc1)c1ncnc2nc[nH]c12", "Potency": "inconclusive: 1.84 µM [inhibitor, full curve, poor fit]"},
      {"smiles": "O=[N+]([O-])c1cccc(C(=S)N2CCN(c3ccccc3F)CC2)c1", "Potency": "inconclusive: 10.3 µM [inhibitor, partial curve]"},
      {"smiles": "CCOc1ccc(N2C(=O)CN(O)C=C3N=c4ccccc4=C32)cc1", "Potency": "inconclusive: 29.1 µM [inhibitor, single point]"},
      {"smiles": "CCOc1ccccc1Nc1nc(-c2sc(NC(=O)c3ccc([N+](=O)[O-])cc3)nc2C)cs1", "activity change, negative = inhibition": "inactive: 2.15%"},
      {"smiles": "O=C(Nc1nnc(C(F)(F)F)s1)C1COc2ccccc2O1", "note": "(configuration not stated)", "Potency": "inconclusive: 29.1 µM [inhibitor, single point]"},
      {"smiles": "CCN(CC(=O)Nc1cc(OC)ccc1OC)Cc1nc2ccccc2c(=O)[nH]1", "Potency": "inconclusive: 20.6 µM [inhibitor, single point]"},
      {"smiles": "Cc1ccc(Cn2c(SCC(=O)N3CC(=O)Nc4ccccc43)nc3ccccc3c2=O)cc1", "Potency": "inconclusive: 29.1 µM [inhibitor, single point]"},
      {"smiles": "C=C1c2ccccc2NC(=O)N1c1ccc(OC)cc1", "Potency": "inconclusive: 23.1 µM [activator, partial curve]"},
      {"smiles": "ClCc1nnc(-c2cc3c(s2)CCCC3)o1", "Potency": "inconclusive: 29.1 µM [activator, single point]"},
      {"smiles": "O=C(NCc1ccccc1)C(=O)NCC(c1ccco1)N1CCN(c2ccccc2F)CC1", "note": "(configuration not stated)", "Potency": "inconclusive: 20.6 µM [inhibitor, partial curve]"},
      {"smiles": "CCOC(=O)NNC(=S)Nc1c(C)n(C)n(-c2ccccc2)c1=O", "activity change, negative = inhibition": "inactive: -14.1%"},
      {"smiles": "COc1ccc(-c2nc(SCC(=O)NC3CCCCC3)n[nH]2)cc1", "Potency": "inconclusive: 25.9 µM [inhibitor, single point]"},
      {"smiles": "COc1ccc(NC(=O)c2cc3cccc(OC)c3oc2=Nc2ccc(C(=O)O)cc2)cc1OC", "Potency": "inconclusive: 29.1 µM [activator, single point]"},
      {"smiles": "FC(F)(F)c1ccc(/C=N/n2c(COc3ccccc3)n[nH]c2=S)cc1", "activity change, negative = inhibition": "inactive: 2.35%"},
      {"smiles": "CCOc1ccc2nc(NC(=O)c3ccc(S(=O)(=O)N4CCOCC4)cc3)sc2c1", "activity change, negative = inhibition": "inactive: -28%"},
      {"smiles": "Cc1ccc(CNc2nc3ccccc3n2C)o1", "Potency": "inconclusive: 11.2 µM [activator, partial curve, poor fit]"},
      {"smiles": "Cc1cccnc1NC(=O)c1ccc(OCC2CCCO2)cc1", "note": "(configuration not stated)", "Potency": "inconclusive: 18.3 µM [activator, single point]"},
      {"smiles": "Cc1ccc(-c2csc3ncnc(NS(=O)(=O)c4ccc(Cl)cc4)c23)cc1", "activity change, negative = inhibition": "inactive: -14.8%"},
      {"smiles": "COC(=O)[C@H](CCSC)NC(=O)Nc1ccc(C(C)C)cc1", "Potency": "inconclusive: 18.4 µM [activator, single point]"},
      {"smiles": "O=S(=O)(c1ccccc1C(F)(F)F)N1CCN(S(=O)(=O)c2ccccc2C(F)(F)F)CC1", "activity change, negative = inhibition": "inactive: -1.84%"},
      {"smiles": "CSc1cccc(NC(=O)/C=C/c2cccc(Cl)c2)c1", "Potency": "inconclusive: 2.91 µM [activator, full curve]"},
      {"smiles": "Cc1noc(C)c1C(=O)OCC(=O)Nc1ccc(S(N)(=O)=O)cc1", "activity change, negative = inhibition": "inactive: 18.9%"},
      {"smiles": "Cc1ccc(C2=CC(C)(c3ccc(C)cc3)Nc3nc(C(F)(F)F)nn32)cc1", "note": "(configuration not stated)", "Potency": "inconclusive: 18.4 µM [activator, single point]"},
      {"smiles": "CN1CCc2c(sc(NC(=O)c3ccc4ccccc4c3)c2C(N)=O)C1", "Potency": "inconclusive: 10.3 µM [activator, partial curve]"},
      {"smiles": "Cc1cccc(NC(=O)NCCCCc2ccccc2)c1", "Potency": "inconclusive: 29.1 µM [activator, partial curve, poor fit]"},
      {"smiles": "Cn1c(=N)n(CC(=O)c2ccc(Br)s2)c2ccccc21", "Potency": "inconclusive: 2.91 µM [activator, full curve]"},
      {"smiles": "O=C(C1c2ccccc2Oc2ccccc21)N1CCN(c2ccc(Cl)cc2)CC1", "Potency": "inconclusive: 18.4 µM [inhibitor, single point]"},
      {"smiles": "O=C(CSc1ccc(Cl)cc1)Nc1ccc(-c2nc3ccccc3[nH]2)cc1", "Potency": "inconclusive: 29.1 µM [activator, single point]"},
      {"smiles": "CCN(CC(=O)NCc1ccc(Cl)cc1)C(=O)c1ccc2cc(OC)ccc2c1", "activity change, negative = inhibition": "inactive: -7.95%"},
      {"smiles": "CC(C)c1ccc(/C=C2\\SC(=S)N(CC(=O)NCCCN3CCOCC3)C2=O)cc1", "Potency": "inconclusive: 18.3 µM [activator, single point]"},
      {"smiles": "C(=N\\Nc1nnnn1-c1ccccc1)/c1ccncc1", "Potency": "inconclusive: 29.1 µM [inhibitor, single point]"},
      {"smiles": "CC(Oc1ccccc1)C(=O)N1CCC2(CC1)CC(=O)c1ccccc1O2", "note": "(configuration not stated)", "Potency": "inconclusive: 20.6 µM [inhibitor, single point]"},
      {"smiles": "COc1cccc(NC(=O)Cc2csc(NC(=O)Nc3ccccc3OC)n2)c1", "Potency": "inconclusive: 29.1 µM [inhibitor, single point]"},
      {"smiles": "CNC(=S)N(Cc1cc2cc(C)ccc2n2nnnc12)CC(C)(C)CN(C)C", "activity change, negative = inhibition": "inactive: -5.43%"},
      {"smiles": "CCOC(=O)CN(C(=O)CSc1nnc2c(n1)[nH]c1ccc(OC)cc12)c1ccc(F)cc1", "Potency": "inconclusive: 18.4 µM [inhibitor, single point]"},
      {"smiles": "CCNC(=O)n1nccc1C(C)Oc1ccc(Cl)cc1", "note": "(configuration not stated)", "activity change, negative = inhibition": "inactive: 1.62%"},
      {"smiles": "CC(=O)c1ccc(NC(=O)Nc2ccccc2)cc1", "Potency": "inconclusive: 1.64 µM [activator, full curve]"},
      {"smiles": "O=C(COC(=O)c1cc([N+](=O)[O-])ccc1NCCO)Nc1cccc(S(=O)(=O)N2CCCC2)c1", "Potency": "inconclusive: 25.9 µM [inhibitor, single point]"},
      {"smiles": "CCC(C)Nc1nc(-c2c[nH]c3ccccc23)cs1", "note": "(configuration not stated)", "Potency": "inconclusive: 18.3 µM [activator, partial curve, poor fit]"},
      {"smiles": "CC(=O)c1ccc(OCCCCOc2ccc(C(C)=O)cc2)cc1", "activity change, negative = inhibition": "inactive: 18.6%"},
      {"smiles": "CC(=O)Nc1cccc(C(=O)OCc2ccc(C(=O)Oc3ccc(Cl)cc3)cc2)c1", "Potency": "inconclusive: 25.9 µM [activator, single point]"},
      {"smiles": "Cc1ccc(S(=O)(=O)N2CCN(C(=O)c3cc(=O)c4ccccc4o3)CC2)cc1", "activity change, negative = inhibition": "inactive: -24.6%"},
      {"smiles": "COC(=O)c1ccc(OCC(=O)c2ccc(O)cc2O)cc1", "Potency": "inconclusive: 11.2 µM [activator, partial curve, poor fit]"},
      {"smiles": "CCC(CO)Oc1cc(NC(=O)c2ccc(Cl)cc2)c2ncn(C(C)C)c2c1", "note": "(configuration not stated)", "activity change, negative = inhibition": "inactive: 0%"},
      {"smiles": "CCOc1ccc(CNc2ccc(N3CCN(Cc4ccccc4)CC3)cc2)cc1", "Potency": "inconclusive: 8.91 µM [inhibitor, partial curve, poor fit]"},
      {"smiles": "COC(=O)c1ccccc1NC(=O)CSc1nc2c(c(=O)[nH]1)CCC2", "Potency": "inconclusive: 8.2 µM [activator, partial curve]"},
      {"smiles": "O=C(Cn1cnc2ccccc21)Nc1cccc(S(=O)(=O)N2CCCC2)c1", "activity change, negative = inhibition": "inactive: 4.88%"},
      {"smiles": "Cc1sc2ncnc(N3CCC(C(=O)Nc4ccc(C#N)cc4)CC3)c2c1C", "Potency": "inconclusive: 7.3 µM [inhibitor, single point]"},
      {"smiles": "Cc1cnc(NC(=O)C2CC(=O)N(c3ccc4c(c3)OCCO4)C2)s1", "note": "(configuration not stated)", "Potency": "inconclusive: 10.3 µM [inhibitor, partial curve, poor fit]"},
      {"smiles": "O=C(COC(=O)c1cccc(Cl)c1)Nc1cccc(S(=O)(=O)NC2=NCCC2)c1", "Potency": "inconclusive: 20.6 µM [activator, single point]"},
      {"smiles": "O=c1[nH]c2cc3c(cc2cc1CN(Cc1nnnn1CC1CCCO1)C1CCCC1)OCO3", "note": "(configuration not stated)", "Potency": "active: 14.6 µM"},
      {"smiles": "COc1ccc(-c2c(C#N)c(N)nc3c2CCc2ccccc2-3)cc1OC", "Potency": "inconclusive: 23.1 µM [inhibitor, partial curve, poor fit]"},
      {"smiles": "CN(Cc1cccc(F)c1)C(=O)CN1CCN(S(=O)(=O)c2ccc3c(c2)OCCCO3)CC1", "Potency": "inconclusive: 3.66 µM [inhibitor, partial curve, poor fit]"},
      {"smiles": "CN(C)CCCN(C(=O)c1ccco1)c1nc2cc3c(cc2s1)OCO3", "activity change, negative = inhibition": "inactive: 19.9%"},
      {"smiles": "N#CCCn1cc(/C=C2\\NC(=S)N(c3ccccc3)C2=O)c(-c2ccc(F)cc2)n1", "Potency": "inconclusive: 25.9 µM [inhibitor, single point]"},
      {"smiles": "CCn1ccc(C(=O)Nc2ccc(Cl)cn2)n1", "Potency": "inconclusive: 8.2 µM [activator, partial curve]"},
      {"smiles": "COc1ccc(CC(=O)N2CCN(c3ccc(F)cc3)CC2)cc1", "activity change, negative = inhibition": "inactive: -13.6%"},
      {"smiles": "Cc1csc(SC(C)c2nc3scc(-c4ccccc4)c3c(=O)[nH]2)n1", "note": "(configuration not stated)", "Potency": "inconclusive: 16.4 µM [inhibitor, partial curve]"},
      {"smiles": "O=C(NCc1ccccn1)C1CC(c2ccccc2O)=NO1", "note": "(configuration not stated)", "activity change, negative = inhibition": "inactive: 4.62%"},
      {"smiles": "CCOC(=O)c1ccc(S(=O)(=O)N2CCN(CC(O)COc3cccc(C(C)=O)c3)CC2)cc1", "note": "(configuration not stated)", "activity change, negative = inhibition": "inactive: 13.1%"},
      {"smiles": "O=C(CN1C(=O)S/C(=C\\c2ccccc2F)C1=O)NC1C=CS(=O)(=O)C1", "note": "(configuration not stated)", "Potency": "inconclusive: 32.6 µM [activator, partial curve, poor fit]"},
      {"smiles": "Cc1ccc2c(c1)COc1c3ccc(C(=O)N4CCOCC4)cc3nn1-2", "Potency": "inconclusive: 10.3 µM [activator, partial curve]"},
      {"smiles": "CCOc1cc(C(=S)N2CCCCC2)ccc1OS(=O)(=O)c1ccc(Cl)cc1", "Potency": "inconclusive: 32.6 µM [inhibitor, partial curve, poor fit]"},
      {"smiles": "CC1=C(C(=O)Nc2cccc(F)c2)C(c2ccsc2)C2=C(CC(C)(C)CC2=O)N1", "note": "(configuration not stated)", "Potency": "inconclusive: 7.31 µM [inhibitor, single point]"},
      {"smiles": "CCCC[n+]1ccn(-c2nc3ccccc3nc2[N-]S(=O)(=O)c2cccs2)c1", "Potency": "active: 20.6 µM"}
    ]}
  ]
}
